Experimental data as given in article PMC7819943, “Rice protein-binding microarrays: a tool to detect cis-acting elements near promoter regions in rice”.
This is one part of the list.

Molecular target: T1, OsSMF1 (Oryza sativa, UniProt Q6ZLB0 1-436)
T1 sequence: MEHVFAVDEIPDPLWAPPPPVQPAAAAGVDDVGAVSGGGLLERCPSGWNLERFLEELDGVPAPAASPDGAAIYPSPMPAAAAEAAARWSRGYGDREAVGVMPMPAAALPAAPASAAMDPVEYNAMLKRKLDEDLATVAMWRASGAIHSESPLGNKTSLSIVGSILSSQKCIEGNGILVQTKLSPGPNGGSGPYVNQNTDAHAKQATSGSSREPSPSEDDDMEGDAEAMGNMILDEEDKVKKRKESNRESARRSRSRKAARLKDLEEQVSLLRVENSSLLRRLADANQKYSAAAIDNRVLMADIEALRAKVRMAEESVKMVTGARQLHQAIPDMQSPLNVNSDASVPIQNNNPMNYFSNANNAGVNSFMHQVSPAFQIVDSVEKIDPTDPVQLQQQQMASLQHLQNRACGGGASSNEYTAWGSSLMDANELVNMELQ
Test: protein-binding microarray (RPBM); PBS, 2% BSA, 51.3 ng/ul salmon testes DNA, 50 uM zinc acetate, 200 nM TF, 25 C, 1 h; high values mean tight binding
Conditions: protein: recombinant; tags: N-terminal polyhistidine and DsRed monomer fusion (pET32a); chain copies: 2; label: CyDye5-dUTP incorporated in the synthesized complementary strand; 3' TTTTT single-stranded linker to array surface; dsDNA, one strand shown
Method in brief: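 Binding signal is defined as the fluorescence intensity of each feature in arbitrary units, read on an Axon 4000B scanner. Transcription factors with N-terminal polyhistidine and DsRed fusions came from E. coli BL21-CodonPlus and were purified on Ni–NTA. They were incubated at 200 nM for 1 h at 25 °C on a custom Agilent array that had been made double-stranded with Cy5-dUTP, with 50 µM zinc acetate present, and the array was washed.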

Sequence | binding signal
TTACAGTATAGTCCTAGAAACTATTTGGCATGCGTTGATTCGGAGTCACCTAGTGCAG | 12900 fluorescence intensity (a.u.)
TGGGATATTTTGGCCATGTACAACACTCCACCGTGGGTAGCGGAGTCACCTAGTGCAG | 4540 fluorescence intensity (a.u.)
TTATTTGGCGCTGAGCTATGATGACTCAGCAAATTCGTGCCGGAGTCACCTAGTGCAG | 21700 fluorescence intensity (a.u.)
TGGCATATGCTCCAAATATTCCAAACTAAACCCCTTCTTGCGGAGTCACCTAGTGCAG | 21500 fluorescence intensity (a.u.)
GCCCCGGTGCCACGTGTTCGGCCGAGACGCCCTCTCCTCTCGGAGTCACCTAGTGCAG | 28100 fluorescence intensity (a.u.)
CCAGCATTTTCGTCTGTCAGCCAGGCAAACCAAAATGGGGCGGAGTCACCTAGTGCAG | 3530 fluorescence intensity (a.u.)
TTTTAAAACCACATCAGCCACATTTACCTTATCCTCTCGCCGGAGTCACCTAGTGCAG | 3880 fluorescence intensity (a.u.)
TATACTCACTTTTGTTTTATAGTATAGTTCGATTTAACTTCGGAGTCACCTAGTGCAG | 22500 fluorescence intensity (a.u.)
GGCGTCTGTCCTGACCACCTCGCACGTCCGCCGTCTCCTCCGGAGTCACCTAGTGCAG | 3660 fluorescence intensity (a.u.)
ATTCGTCCATGAAAAGAGAGAGACAACTAGATCCAAAAGTCGGAGTCACCTAGTGCAG | 3210 fluorescence intensity (a.u.)
GTATTTTAAGAGGGAGGGAGTAGATCGTAGCAGGTGGACACGGAGTCACCTAGTGCAG | 3720 fluorescence intensity (a.u.)
AGTGGTGGAGAAGGAGAGGAGAGGCAGAGAGAATGAGGAGCGGAGTCACCTAGTGCAG | 3240 fluorescence intensity (a.u.)
TTTCTCGGGTCATCAGTCCAAGTCATCTCACATGGTGGAGCGGAGTCACCTAGTGCAG | 6770 fluorescence intensity (a.u.)
AATTCCAAAGTGAAATTCATATTAGCTAAACCGTATAACACGGAGTCACCTAGTGCAG | 3540 fluorescence intensity (a.u.)
GGCCGGCGCTATCATGCCACCGGGGTTTCCGACTTTCCCTCGGAGTCACCTAGTGCAG | 23300 fluorescence intensity (a.u.)
TCGAAACGTGGCTGAGTCATCGATTGACCTTATCCAGTAGCGGAGTCACCTAGTGCAG | 13200 fluorescence intensity (a.u.)
ATTTCTCACTGTCGTGACATGAGAATTTCAGCAAGGAAGGCGGAGTCACCTAGTGCAG | 11000 fluorescence intensity (a.u.)
ATTTCACCACCACCGCCACGGCCTCTGCCTCTCGCTCTCTCGGAGTCACCTAGTGCAG | 3200 fluorescence intensity (a.u.)
CTTGATTACCCCGTAGTCAGGTTTGTATGACTAAGCAACCCGGAGTCACCTAGTGCAG | 4650 fluorescence intensity (a.u.)
TCGGAGAGGGCGCGGTGGGAGAGGTTGAGCGACGTGGCGACGGAGTCACCTAGTGCAG | 5290 fluorescence intensity (a.u.)
ATAACTTGCCATGCCGCATTCTCTTTGAACTCGGTCTCTTCGGAGTCACCTAGTGCAG | 17400 fluorescence intensity (a.u.)
CGGTCCATGCTTGCTCAGCATGATCCTGATCTCTTCTGCACGGAGTCACCTAGTGCAG | 3960 fluorescence intensity (a.u.)
CCTGCTTCCCTCACCAATGACGCCGCTCCCCATACCCCTTCGGAGTCACCTAGTGCAG | 4940 fluorescence intensity (a.u.)

Shown with tabs: part of the list above.
Sequence	binding signal
ATTCGTCCATGAAAAGAGAGAGACAACTAGATCCAAAAGTCGGAGTCACCTAGTGCAG	3210 fluorescence intensity (a.u.)
GTATTTTAAGAGGGAGGGAGTAGATCGTAGCAGGTGGACACGGAGTCACCTAGTGCAG	3720 fluorescence intensity (a.u.)
AGTGGTGGAGAAGGAGAGGAGAGGCAGAGAGAATGAGGAGCGGAGTCACCTAGTGCAG	3240 fluorescence intensity (a.u.)
TTTCTCGGGTCATCAGTCCAAGTCATCTCACATGGTGGAGCGGAGTCACCTAGTGCAG	6770 fluorescence intensity (a.u.)
AATTCCAAAGTGAAATTCATATTAGCTAAACCGTATAACACGGAGTCACCTAGTGCAG	3540 fluorescence intensity (a.u.)
